PubChem BioAssay AID1224828 | NIAID | 2016

Purpose: 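Regulators linking TLR4 signalling to p65 nuclear translocation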 (primary screen)
System: mouse RAW264.7 G9 macrophage reporter cells (GFP-p65, Tnf promoter-mCherry)
Reagents: siRNA pool against mouse genes, 100 nM
Timing: 2 days siRNA transfection, then 40 min LPS before fixation
Conditions: LPS (Salmonella minnesota R595) at 10 ng/ml
Measured: 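Microscopy ratio of nuclear to perinuclear-ring GFP-p65 signal, scaled to the plate median; gene score is the average of two replicate robust z-scores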
Scale: p65 translocation robust z-score: higher = more nuclear NF-kappaB p65 after LPS than the plate median; nuclear/cytoplasmic p65 ratio: higher = more nuclear NF-kappaB p65
Rule for the call: 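Active if robust z is above 3.3 (negative regulators) or below -1.56, the Tlr4 control median (positive regulators); activity score 50 or more; control wells not called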
Calls: active = hit (p65 shift raised or lowered); inactive = no clear change
In all, the deposit lists about 17,000 reagents; this is a random part of them. In the full data, 762 (4.5%) are marked active. 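Active calls include both raised and lowered p65 entry, mostly lowered; wells with fewer than 50 cells lack a z-score.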 The raw values are shown without normalisation. Reagents against one gene are numbered here.

gene symbol	reagent no.	p65 translocation robust z-score	nuclear/cytoplasmic p65 ratio, rep 1	nuclear/cytoplasmic p65 ratio, rep 2	low cell count flag	Call
Or5au1	1	0.52	1.76	1.43	enough cells to score	inactive
Snrpb	1		1.52	1.3	fewer than 50 cells per well; well left out of scoring	inactive
Ncf2	1	0.5	1.45	1.46	enough cells to score	inactive
Nacc2	1	1.37	0.975	1.72	enough cells to score	inactive
Tmlhe	1		1.32	1.17	fewer than 50 cells per well; well left out of scoring	inactive
Ugt2b34	1	1.16	1.9	1.69	enough cells to score	inactive
Hecw1	1	-0.72	1.49	1.42	enough cells to score	inactive
Med17	1	-1.45	1.41	1.08	enough cells to score	inactive
Bscl2	1	0.13	1.65	1.61	enough cells to score	inactive
Nrdc	1	-0.04	1.68	1.55	enough cells to score	inactive
Vamp5	1	-0.31	1.5	1.69	enough cells to score	inactive
Vamp5	2	-0.21	1.25	1.2	enough cells to score	inactive
Scgb2b27	1	1.79	1.75	1.69	enough cells to score	inactive
Dpf2	1	-0.75	1.34	1.31	enough cells to score	inactive
Tcl1	1	0.54	1.69	1.51	enough cells to score	inactive
Ncf1	1	-1.09	1.3	1.21	enough cells to score	inactive
Or1j15	1		1.4	1.1	fewer than 50 cells per well; well left out of scoring	inactive
Sf3b4	1		1.16	1.17	fewer than 50 cells per well; well left out of scoring	inactive
Atad1	1	-0.15	1.49	1.58	enough cells to score	inactive
Atp6v1c2	1	-0.44	1.45	1.54	enough cells to score	inactive
Tcirg1	1	-1.28	1.39	1.29	enough cells to score	inactive
Ndst4	1	0.42	1.53	1.37	enough cells to score	inactive
Csn1s2a	1	-3.05	1.1	1.31	enough cells to score	active
Syap1	1	-1.22	1.2	1.07	enough cells to score	inactive
Sema6d	1	-0.5	1.57	1.2	enough cells to score	inactive
Mras	1	0.89	1.56	1.46	enough cells to score	inactive
Hycc1	1	1.84	1.87	1.45	enough cells to score	inactive
Igdcc4	1	-0.38	1.66	1.47	enough cells to score	inactive
Tbx4	1	-0.41	1.53	1.4	enough cells to score	inactive
Krtcap3	1	0.09	1.55	1.46	enough cells to score	inactive
C1ra	1	-0.15	1.62	1.57	enough cells to score	inactive
Plekhb1	1	-1.03	1.24	1.11	enough cells to score	inactive
Xrcc3	1	0.03	1.56	1.47	enough cells to score	inactive
Gm38404	1	0.1	1.56	1.83	enough cells to score	inactive
Tulp1	1	0.11	1.57	1.47	enough cells to score	inactive
Rnf227	1	-0.02	1.42	1.47	enough cells to score	inactive
Cd63	1	-0.23	1.42	1.37	enough cells to score	inactive
Gnao1	1	1.23	1.67	1.77	enough cells to score	inactive
Ctcf	1	-1.1	1.35	1.22	enough cells to score	inactive
Hmbox1	1	-0.17	1.49	1.51	enough cells to score	inactive
Or5ak22	1	0.97	1.62	1.31	enough cells to score	inactive
Taf5l	1	-0.53	1.47	1.42	enough cells to score	inactive
Ssc5d	1	0.54	1.48	1.57	enough cells to score	inactive
Kcnj2	1	-0.52	1.35	1.36	enough cells to score	inactive
Il13	1	-0.53	1.39	1.28	enough cells to score	inactive
Snph	1	1.88	1.38	1.44	enough cells to score	inactive
B3gnt7	1	0.57	1.58	1.69	enough cells to score	inactive
Eif1ax	1	-0.07	1.56	1.27	enough cells to score	inactive
E4f1	1	1.14	1.68	1.46	enough cells to score	inactive

Continued (7 carried over from the part before).
gene symbol	reagent no.	p65 translocation robust z-score	nuclear/cytoplasmic p65 ratio, rep 1	nuclear/cytoplasmic p65 ratio, rep 2	low cell count flag	Call
Ssc5d	1	0.54	1.48	1.57	enough cells to score	inactive
Kcnj2	1	-0.52	1.35	1.36	enough cells to score	inactive
Il13	1	-0.53	1.39	1.28	enough cells to score	inactive
Snph	1	1.88	1.38	1.44	enough cells to score	inactive
B3gnt7	1	0.57	1.58	1.69	enough cells to score	inactive
Eif1ax	1	-0.07	1.56	1.27	enough cells to score	inactive
E4f1	1	1.14	1.68	1.46	enough cells to score	inactive
Ank3	1	-0.08	1.62	1.59	enough cells to score	inactive
Tspan18	1		1.55	1.45	fewer than 50 cells per well; well left out of scoring	inactive
Tmem175	1		1.15	1.23	fewer than 50 cells per well; well left out of scoring	inactive
Arl4a	1	0	1.69	1.55	enough cells to score	inactive
Hmgb4	1		1.35	1.78	fewer than 50 cells per well; well left out of scoring	inactive
Fosl2	1	0.95	1.69	1.51	enough cells to score	inactive
Ednrb	1	0.93	1.63	1.55	enough cells to score	inactive
Tdpoz3	1		1.37	1.22	fewer than 50 cells per well; well left out of scoring	inactive
Kifc5b	1		1.59	1.37	fewer than 50 cells per well; well left out of scoring	inactive
Kifc5b	2	0.12	1.57	1.39	enough cells to score	inactive
Cobll1	1	-0.26	1.53	1.76	enough cells to score	inactive
Crhr1	1	-0.75	1.35	1.53	enough cells to score	inactive
Vmn1r181	1	-0.89	1.25	1.15	enough cells to score	inactive
Exoc3l4	1	-0.66	1.39	1.25	enough cells to score	inactive
Sprr1a	1	-0.21	1.41	1.19	enough cells to score	inactive
Or6c3	1		1.34	1.14	fewer than 50 cells per well; well left out of scoring	inactive
Kdr	1	0.04	1.66	1.41	enough cells to score	inactive
Cdkn2aip	1	1.44	1.55	1.33	enough cells to score	inactive
Chst3	1	0.56	1.73	1.82	enough cells to score	inactive
Ddx47	1	-0.37	1.52	1.49	enough cells to score	inactive
Mtm1	1	-0.46	1.34	1.32	enough cells to score	inactive
Col9a2	1	1.91	1.62	1.73	enough cells to score	inactive
Tmem33	1	0.39	1.57	1.52	enough cells to score	inactive
Cry2	1	-1.24	1.38	1.59	enough cells to score	inactive
Rmnd5a	1	0.07	1.58	1.43	enough cells to score	inactive
Vwa3b	1	-1.18	1.22	1.36	enough cells to score	inactive
